The target of the series is p53 (wild type, major form) (Mus musculus) (UniProt P02340). Kind of series: EMSA. Conditions: no apparent binding without activation; protein translated in vitro; protein details: rabbit reticulocyte lysate, plasmid pBSp53; label: 32P end label.

Chains of the proteins cited; added tags and fusions are not shown.
UniProt P02340, whole entry: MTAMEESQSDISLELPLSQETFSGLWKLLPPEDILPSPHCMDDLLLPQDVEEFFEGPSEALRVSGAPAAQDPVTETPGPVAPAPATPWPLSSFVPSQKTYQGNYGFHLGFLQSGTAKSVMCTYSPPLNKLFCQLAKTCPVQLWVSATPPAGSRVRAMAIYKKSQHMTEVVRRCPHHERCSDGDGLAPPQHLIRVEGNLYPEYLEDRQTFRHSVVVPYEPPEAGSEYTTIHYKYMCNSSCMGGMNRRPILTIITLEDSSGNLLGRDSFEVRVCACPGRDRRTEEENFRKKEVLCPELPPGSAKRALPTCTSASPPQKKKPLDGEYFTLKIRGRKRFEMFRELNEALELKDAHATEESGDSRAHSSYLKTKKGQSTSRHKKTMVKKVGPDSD

Negatives hold for the conditions tested.

As for “AGGCATGCCTAGGCATGCCT (double strand) [p53 binding sequence (two 10-mer half sites)]”, the binding result is “no binding”.

Values taken from patent US5726024.
